Like-named read-outs stand apart in the source and are kept apart here. Results are given in words; binding and its absence hold for the method and conditions named. Some entries that bind do so weakly or less than the wild type. For some assays here: Sequences can lack the tags named with a protein.
B1: TAF-12 (yeast two-hybrid fusion) (protein, UniProt Q9U226 1-342)
chain: MKMEEFSPPTSPNNHVIVQANPQIAAALSTNSPMQQGIPPQGHQNPNEQQQQQQFVGQPPMGGMGGPMRMQMPQQQIRQMPYPSPQMRAGPPPPQQQQQQHFQQMGIPQQQQPQQFTPNGQSMQMQQRPMQMGMAQGPGPSGHLMGMVGGPPPQHMMQQQGGGGPPQFVPNSSPMPLPPQQIMQVQHQQQHQQPPPSQQIQQPPIPQPQQQQAPPPQMIPAAVPYGSIMEKSKLDDLMQQISSTTVLEENVKDVLVEYADDFVSSLIDKACKMIKNREVKKIESRDIEFILKNVYNMPVVPRAASHNFGSQTEVIDLSKEKFVPTEAHKQRVALLKKQIKKL

The chains behind the UniProt entries cited, without tags or fusion partners.
UniProt Q9N5K2: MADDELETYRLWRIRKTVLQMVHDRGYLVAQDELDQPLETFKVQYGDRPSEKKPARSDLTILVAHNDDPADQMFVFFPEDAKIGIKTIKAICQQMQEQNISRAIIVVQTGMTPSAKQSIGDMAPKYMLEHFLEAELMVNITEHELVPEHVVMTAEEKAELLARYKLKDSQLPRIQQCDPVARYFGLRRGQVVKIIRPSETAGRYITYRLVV
UniProt Q9U1W2: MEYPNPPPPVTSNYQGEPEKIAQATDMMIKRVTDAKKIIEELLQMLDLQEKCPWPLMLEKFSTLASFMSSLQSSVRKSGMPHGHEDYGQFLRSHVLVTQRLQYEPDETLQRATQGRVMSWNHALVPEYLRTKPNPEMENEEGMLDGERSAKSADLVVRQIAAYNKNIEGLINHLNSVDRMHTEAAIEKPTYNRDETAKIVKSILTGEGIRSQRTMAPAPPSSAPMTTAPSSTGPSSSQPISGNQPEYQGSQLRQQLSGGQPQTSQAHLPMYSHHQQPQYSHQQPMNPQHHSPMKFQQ

What was measured:
Assay in all cases: two-hybrid
[1] = target: UAD-2 (yeast two-hybrid fusion) (C. elegans)
[2] = target: RPB-5 (yeast two-hybrid fusion) (C. elegans) (UniProt Q9N5K2)
[3] = target: UAD-2 (yeast two-hybrid fusion) (C. elegans); remark: listed apart in the source
[4] = target: RPB-5 (yeast two-hybrid fusion) (C. elegans) (UniProt Q9N5K2); remark: listed apart in the source
[5] = target: MDT-8 (yeast two-hybrid fusion) (C. elegans) (UniProt Q9U1W2)

Molecule	binding [1]	binding [2]	binding [3]	binding [4]	binding [5]
MDT-8 (yeast two-hybrid fusion) (from UniProt Q9U1W2 1-297)	binds	binds			
B1			binds	binds	binds
